From publication PMC6637133, “SPRTN protease and checkpoint kinase 1 cross-activation loop safeguards DNA replication” (Nature Communications, 2019) come the findings set out here.

The chains behind the UniProt entries cited, without tags or fusion partners.
UniProt Q13535: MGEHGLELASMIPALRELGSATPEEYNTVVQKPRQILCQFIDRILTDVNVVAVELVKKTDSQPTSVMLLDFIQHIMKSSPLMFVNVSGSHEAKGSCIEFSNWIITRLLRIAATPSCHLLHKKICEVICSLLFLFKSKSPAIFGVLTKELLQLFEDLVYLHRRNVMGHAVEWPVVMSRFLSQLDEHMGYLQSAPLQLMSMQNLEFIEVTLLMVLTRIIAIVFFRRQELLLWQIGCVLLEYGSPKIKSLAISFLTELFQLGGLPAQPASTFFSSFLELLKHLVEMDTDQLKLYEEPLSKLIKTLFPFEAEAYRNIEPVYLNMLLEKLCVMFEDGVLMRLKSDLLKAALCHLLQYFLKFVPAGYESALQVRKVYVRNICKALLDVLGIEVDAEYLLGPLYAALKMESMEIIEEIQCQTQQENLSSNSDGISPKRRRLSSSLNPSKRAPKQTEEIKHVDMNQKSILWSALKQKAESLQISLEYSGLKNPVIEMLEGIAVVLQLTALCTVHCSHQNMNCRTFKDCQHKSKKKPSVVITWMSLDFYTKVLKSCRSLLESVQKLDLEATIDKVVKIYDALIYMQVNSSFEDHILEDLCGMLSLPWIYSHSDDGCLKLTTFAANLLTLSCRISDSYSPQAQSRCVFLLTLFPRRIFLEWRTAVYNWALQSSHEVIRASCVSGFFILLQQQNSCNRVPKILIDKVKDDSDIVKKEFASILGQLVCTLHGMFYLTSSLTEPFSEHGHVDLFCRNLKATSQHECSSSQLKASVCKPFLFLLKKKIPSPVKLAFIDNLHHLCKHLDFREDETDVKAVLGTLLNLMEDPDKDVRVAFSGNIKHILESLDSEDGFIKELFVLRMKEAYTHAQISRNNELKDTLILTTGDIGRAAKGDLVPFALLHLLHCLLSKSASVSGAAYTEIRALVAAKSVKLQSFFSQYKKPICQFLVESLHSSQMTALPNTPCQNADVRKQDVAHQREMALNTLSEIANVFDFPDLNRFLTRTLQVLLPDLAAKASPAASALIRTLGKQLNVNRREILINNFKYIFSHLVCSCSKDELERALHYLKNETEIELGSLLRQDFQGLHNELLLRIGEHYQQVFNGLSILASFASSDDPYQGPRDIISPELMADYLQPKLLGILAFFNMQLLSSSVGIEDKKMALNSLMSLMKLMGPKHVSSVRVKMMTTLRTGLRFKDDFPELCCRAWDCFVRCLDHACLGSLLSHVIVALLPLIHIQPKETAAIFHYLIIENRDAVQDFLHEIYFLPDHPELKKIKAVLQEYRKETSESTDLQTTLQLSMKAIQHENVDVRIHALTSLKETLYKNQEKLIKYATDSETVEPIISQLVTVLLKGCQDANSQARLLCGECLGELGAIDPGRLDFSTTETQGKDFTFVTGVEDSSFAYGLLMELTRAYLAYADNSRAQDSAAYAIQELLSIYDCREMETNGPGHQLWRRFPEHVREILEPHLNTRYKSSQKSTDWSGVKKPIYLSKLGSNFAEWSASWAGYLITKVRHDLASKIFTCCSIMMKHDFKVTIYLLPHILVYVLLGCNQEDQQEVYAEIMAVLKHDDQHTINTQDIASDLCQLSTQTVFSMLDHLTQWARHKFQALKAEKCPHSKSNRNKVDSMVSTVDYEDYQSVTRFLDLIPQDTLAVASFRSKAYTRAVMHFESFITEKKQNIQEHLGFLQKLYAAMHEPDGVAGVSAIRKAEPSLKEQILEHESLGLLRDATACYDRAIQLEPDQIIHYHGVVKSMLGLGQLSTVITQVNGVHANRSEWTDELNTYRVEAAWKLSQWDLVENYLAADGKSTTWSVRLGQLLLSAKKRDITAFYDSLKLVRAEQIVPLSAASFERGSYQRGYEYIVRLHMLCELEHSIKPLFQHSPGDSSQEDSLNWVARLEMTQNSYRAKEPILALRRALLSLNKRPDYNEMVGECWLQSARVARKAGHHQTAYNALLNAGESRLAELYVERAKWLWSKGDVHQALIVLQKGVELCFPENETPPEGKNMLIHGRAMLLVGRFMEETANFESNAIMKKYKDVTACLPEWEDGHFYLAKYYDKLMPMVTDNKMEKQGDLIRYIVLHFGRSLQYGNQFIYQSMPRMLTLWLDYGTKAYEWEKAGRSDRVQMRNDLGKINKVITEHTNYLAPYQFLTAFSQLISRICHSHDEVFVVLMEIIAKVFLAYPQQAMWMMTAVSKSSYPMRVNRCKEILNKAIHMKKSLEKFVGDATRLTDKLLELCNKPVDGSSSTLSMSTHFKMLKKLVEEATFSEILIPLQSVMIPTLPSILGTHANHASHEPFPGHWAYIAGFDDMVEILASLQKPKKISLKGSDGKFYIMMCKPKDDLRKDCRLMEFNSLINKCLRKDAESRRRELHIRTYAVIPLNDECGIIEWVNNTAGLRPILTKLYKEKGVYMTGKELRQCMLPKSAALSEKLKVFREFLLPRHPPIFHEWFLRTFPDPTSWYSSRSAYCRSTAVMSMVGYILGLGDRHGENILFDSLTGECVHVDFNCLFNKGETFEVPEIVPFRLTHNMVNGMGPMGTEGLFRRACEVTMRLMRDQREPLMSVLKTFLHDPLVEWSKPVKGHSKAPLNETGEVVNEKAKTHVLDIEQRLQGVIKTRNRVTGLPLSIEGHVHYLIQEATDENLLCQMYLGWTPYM

Numbering of substitutions follows the chain as printed. Like-named read-outs stand apart in the source and are kept apart here. No constants are given. Whether binding was seen depends on the method and setting. In cells and extracts the contact can be indirect. Some results given as binding are weak or reduced against the parent protein; the word gives no strength.

What all share (assay): co-IP; SPRTN-cSSH captured on Strep-Tactin sepharose from non-denaturing HEK293 whole cell lysates (1% Triton, 150 mM NaCl; pellet digested with Benzonase and pooled), 2 h at 4 °C, washes with 0.05% NP-40; immunoblot; cells under normal conditions or with low-dose CPT (100 nM)
On the technique in general: Immunoblotting shows a protein as a band on a membrane.

Assay [1] addresses T1, SPRTN-wt-cSSH (human) (UniProt Q9H040).
T1 sequence: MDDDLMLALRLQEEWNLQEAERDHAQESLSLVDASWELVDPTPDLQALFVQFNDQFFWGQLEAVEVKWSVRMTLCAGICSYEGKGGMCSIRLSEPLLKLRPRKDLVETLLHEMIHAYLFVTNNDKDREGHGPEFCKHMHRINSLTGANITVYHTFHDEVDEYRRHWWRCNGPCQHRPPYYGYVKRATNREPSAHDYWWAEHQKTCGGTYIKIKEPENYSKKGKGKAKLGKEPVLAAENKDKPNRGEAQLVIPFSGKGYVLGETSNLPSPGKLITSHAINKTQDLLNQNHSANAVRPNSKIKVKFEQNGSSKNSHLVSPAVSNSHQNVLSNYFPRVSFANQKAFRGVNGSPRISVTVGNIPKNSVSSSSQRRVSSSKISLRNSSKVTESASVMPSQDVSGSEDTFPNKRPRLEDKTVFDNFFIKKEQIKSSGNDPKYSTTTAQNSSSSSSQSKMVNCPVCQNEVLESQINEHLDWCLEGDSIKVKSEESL

For assay [2], the target named is T1, SPRTN-wt-cSSH (human). This is another data set of the same source.
In a further assay the target is T2, SPRTN-Y117C-cSSH (human) (UniProt Q9H040).
T2 sequence: T1 sequence with Y117C

In the case of “ATR (from UniProt Q13535 1-2644) (enzyme)”, in the assay with SPRTN-wt-cSSH (human) [1], the binding result was “no binding”.

B1: MCM3 (protein, UniProt P25205 1-808)
chain: MAGTVVLDDVELREAQRDYLDFLDDEEDQGIYQSKVRELISDNQYRLIVNVNDLRRKNEKRANRLLNNAFEELVAFQRALKDFVASIDATYAKQYEEFYVGLEGSFGSKHVSPRTLTSCFLSCVVCVEGIVTKCSLVRPKVVRSVHYCPATKKTIERRYSDLTTLVAFPSSSVYPTKDEENNPLETEYGLSVYKDHQTITIQEMPEKAPAGQLPRSVDVILDDDLVDKAKPGDRVQVVGTYRCLPGKKGGYTSGTFRTVLIACNVKQMSKDAQPSFSAEDIAKIKKFSKTRSKDIFDQLAKSLAPSIHGHDYVKKAILCLLLGGVERDLENGSHIRGDINILLIGDPSVAKSQLLRYVLCTAPRAIPTTGRGSSGVGLTAAVTTDQETGERRLEAGAMVLADRGVVCIDEFDKMSDMDRTAIHEVMEQGRVTIAKAGIHARLNARCSVLAAANPVYGRYDQYKTPMENIGLQDSLLSRFDLLFIMLDQMDPEQDREISDHVLRMHRYRAPGEQDGDAMPLGSAVDILATDDPNFSQEDQQDTQIYEKHDNLLHGTKKKKEKMVSAAFMKKYIHVAKIIKPVLTQESATYIAEEYSRLRSQDSMSSDTARTSPVTARTLETLIRLATAHAKARMSKTVDLQDAEEAVELVQYAYFKKVLEKEKKRKKRSEDESETEDEEEKSQEDQEQKRKRRKTRQPDAKDGDSYDPYDFSDTEEEMPQVHTPKTADSQETKESQKVELSESRLKAFKVALLDVFREAHAQSIGMNRLTESINRDSEEPFSSVEIQAALSKMQDDNQVMVSEGIIFLI
For B1, the binding result with SPRTN-wt-cSSH (human) [2] and in the assay with SPRTN-Y117C-cSSH (human) was “binds” throughout.
